# Data as given in PubChem BioAssay (Tox21).
# Chains of the proteins cited; added tags and fusions are not shown. Lines headed by an entry give the natural chain unless they say otherwise; changes in a name come on top.
# UniProt P19793: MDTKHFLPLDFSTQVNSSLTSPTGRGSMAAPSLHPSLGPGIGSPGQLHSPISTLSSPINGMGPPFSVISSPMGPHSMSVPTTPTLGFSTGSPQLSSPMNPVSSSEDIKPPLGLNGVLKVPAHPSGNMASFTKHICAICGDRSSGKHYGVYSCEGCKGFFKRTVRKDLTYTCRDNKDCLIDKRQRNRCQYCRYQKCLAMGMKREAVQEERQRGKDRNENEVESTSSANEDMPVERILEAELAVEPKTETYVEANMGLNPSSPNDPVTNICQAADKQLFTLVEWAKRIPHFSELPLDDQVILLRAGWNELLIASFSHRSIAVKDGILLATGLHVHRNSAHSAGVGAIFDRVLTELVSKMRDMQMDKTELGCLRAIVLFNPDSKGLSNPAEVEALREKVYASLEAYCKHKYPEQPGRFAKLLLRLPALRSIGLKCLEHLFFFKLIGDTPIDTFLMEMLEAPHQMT
# Where “and” joins values, the source holds several entries; their conditions need not be identical. Identical values can stand only once. This list was built around the results that the source calls inconclusive (neither active nor inactive); the mix of calls is not that of the screen. Potencies beside an inconclusive call are fits to weak or partial responses and may not hold up. More than one record can exist for a structure, and the calls need not agree. Calls of active or inactive are those of the source. Calls follow the shape of the full dose curve.
# Biological target: Retinoic acid receptor RXR-alpha (Homo sapiens) (UniProt P19793)
# Assay: qHTS assay to identify small molecule agonists of the RXR signaling pathway (AID 1159527); also: nearly all actives have a fitted effect of over 35% in size
# Settings: HEK293T RXRa-UAS-bla, beta-lactamase ratio, 16 h; activation: at 76.8 µM (top of the series) unless noted
# Outline: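 Fluorescence ratio readout (460 vs 530 nm) from GeneBLAzer RXR-alpha HEK 293T cells after 16 hr compound treatment; cells seeded 5 hr beforehand in low-serum, charcoal-stripped medium.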
# % is scaled to controls: 0 for no effect and ±100 for the full control effect; potency is read from the fitted curve at half-maximal effect.
SMILES,Potency,activation
COc1ccc(CCC(=O)c2c(O)cc(O[C@@H]3O[C@H](CO)[C@@H](O)[C@H](O)[C@H]3O[C@@H]3O[C@@H](C)[C@H](O)[C@@H](O)[C@H]3O)cc2O)cc1O,"inconclusive: 24.6 µM [activator, partial curve, poor fit]",–
CC(C)=CC1CC(C)CCO1 (centres undefined),–,inactive: -2.01%
C=CCSSCCC,–,inactive: 1.5%
CC(CC(C#N)(c1ccccc1)C(C)C)N(C)C (centres undefined),–,inactive: -0.901% [at 35.3 µM]
CCCCCCCCCCCCCCCCCCCl,"inconclusive: 0.849 µM [activator, full curve]",–
CC(C)C(=O)OCC(C)(C)C(O)C(C)C (centres undefined),–,inactive: 0.841%
COc1ccc(C(=O)Nc2nc3ccccc3c(NCc3ccccc3)c2C#N)cc1,inconclusive: 19.5 µM,–
COc1ccc(S(=O)(=O)Nc2nnc(CC(C)C)s2)cc1,–,inconclusive: 6.69% [at 35.3 µM]
Cc1cc(NC(=O)C(=O)O)cc(C)c1Oc1ccc(O)c2c1CCC2,"inconclusive: 6.16 µM [activator, partial curve]",–
OC[C@H]1O[C@@H](Oc2ccc(O)cc2)[C@H](O)[C@@H](O)[C@@H]1O,–,inconclusive: 2.28% [at 35.3 µM]
CC[N+]1(CC)CCC(=C(c2ccccc2)c2ccccc2)C1C (centres undefined),–,inactive: -13.6% [at 35.3 µM]
COC(=O)c1ccc(I)cc1S(=O)(=O)NC(=O)Nc1nc(C)nc(OC)n1,"inconclusive: 4.69 µM [activator, full curve, poor fit]",–
F[Si-2](F)(F)(F)(F)F,–,inactive: 14%
O=C(O)Cc1c(Cl)ccc(Cl)c1Cl,–,inactive: -0.216%
CCCC(=O)OCc1ccccc1,–,inconclusive: 17%
CC(C)(c1ccc(Oc2ccc(N)cc2)cc1)c1ccc(Oc2ccc(N)cc2)cc1,"inconclusive: 1.95 µM [inhibitor, full curve]",–
O=C(Cl)c1cc(Cl)cc(Cl)c1,"inconclusive: 62.7 µM [rising, partial curve, poor fit]",–
Cc1occc(=O)c1O,inactive and active: 12.9 µM,–
NC(N)=NC(=O)c1nc(Cl)c(N)nc1N,–,inconclusive: 9.19% [at 35.3 µM]
COc1ccccc1[N+](=O)[O-],inactive,–

SMILES,Potency,activation
CC(=O)N(O)CCCCCNC(=O)CCC(=O)N(O)CCCCCNC(=O)CCC(=O)N(O)CCCCCN,–,inactive: -3.47% [at 35.3 µM]
CCCCCC1CCC(=O)O1 (centres undefined),–,inconclusive: 7.7%
Cc1ccc(S(=O)(=O)NCl)cc1,–,inconclusive: 16.4%
OCC1CC2CC1C1CCC(CO)C21 (centres undefined),"inconclusive: 49 µM [activator, partial curve, poor fit]",–
C=CC(C)(O)CC/C=C(\C)CCC=C(C)C (centres undefined),–,inconclusive: -20.5%
CCOCCO,inactive,–
NC(=S)NNC(N)=S,inactive,–
Nc1ncn([C@H]2C[C@H](O)[C@@H](CO)O2)c(=O)n1,"inconclusive: 6.74 µM [rising, partial curve, poor fit]",–
CCCCNC(=O)NS(=O)(=O)c1ccc(N)cc1,inactive,–
COC(=O)c1cc(Cl)c(NC(C)=O)cc1OC,–,inactive: 6.55% [at 35.3 µM]
CC(=O)CCc1ccc(OC(C)=O)cc1,–,inactive: 2.84%
O=S(=O)(O)c1cc(S(=O)(=O)O)c2ccc3c(S(=O)(=O)O)cc(S(=O)(=O)O)c4ccc1c2c43,–,inactive: -3.71% [at 15.8 µM]
CNC(=O)N(c1ccccc1)c1ccccc1,"inconclusive: 24.6 µM [activator, full curve, poor fit]",–
C/C=C/C(=O)OCC(C)C,"inconclusive: 54.9 µM [fluorescent, single point]",–
Cc1ccc2c(Cl)cc(Cl)c(O)c2n1,–,inconclusive: -4.06% [at 35.3 µM]
CCc1ccc(O)c(OC)c1,–,inactive: 6.39%
C#Cc1cccc(Nc2ncnc3cc(OCCOC)c(OCCOC)cc23)c1,inconclusive: 2.68 µM,–
CCOc1ccc(NC(=O)CC(C)=O)cc1,–,inconclusive: -24.4%
O=C(NS(=O)(=O)/C=C/c1cccs1)c1ccc(F)cc1Br,"inconclusive: 2.45 µM [activator, full curve, poor fit]",–
